At least one compound was matched to its structure with a doubt left. Starred links: 1 amine or outer side, 2 acyl side, 3 side chain; linkers in the order of their positions; H or OH if unused. Positions of bridges follow the written chain, without caps; N, C: chain ends. Non-standard residues stand in square brackets, D forms with d. Residues, ends and D or L forms follow the SMILES beside them. *: point of attachment. X1 = CC[C@H](C)[C@@H](N[*:1])[C@@H](O)CC(=O)O[C@H](C(=O)[C@H](C)C(=O)[*:2])C(C)C; NMeY = CN[C@@H](Cc1ccc(O)cc1)C(=O)O; dNMeL = CN[C@H](CC(C)C)C(=O)O; Pyruvoyl = CC(=O)C(=O)*
Experiment: Phase I study, 24 h continuous infusion every other week: toxicities
Type: in vivo, human
Settings: 3 patients (5000 and 6000 μg/m^2); CPK MM increase, no significant elevation of MB
Description: Definitions for patient toxicities are adopted from WHO Criteria and the responses determined following WHO Response Criteria.
A phase I and pharmacokinetic study of aplidine, given as a 24 h continuous infusion every other week in patients with solid tumours and non-Hodgkin lymphoma

CC[C@H](C)[C@H]1NC(=O)[C@@H](NC(=O)[C@@H](CC(C)C)N(C)C(=O)[C@@H]2CCCN2C(=O)C(C)=O)[C@@H](C)OC(=O)[C@H](Cc2ccc(OC)cc2)N(C)C(=O)[C@@H]2CCCN2C(=O)[C@H](CC(C)C)NC(=O)[C@@H](C)C(=O)[C@H](C(C)C)OC(=O)C[C@@H]1O [aplidine] (Pyruvoyl-P[dNMeL]T[X1]LP[NMeY](Me); ester 3-C)
minor elevations of CPKs, grade: G2
